{"source": "patent US20240374569A1", "about": "“HDAC3 INHIBITORS FOR THE TREATMENT OF LANGERHANS CELL HISTIOCYTOSIS AND LANGERHANS CELL SARCOMA” (HENRY FORD HEALTH SYSTEM, priority 2021, published 2024)", "origin": "cited, not measured here", "test_system": "BRAF (V600)-mutated metastatic melanoma", "conditions": "clinical trial data; cited from earlier work", "note": "Some of these results come from one statement about several compounds together. At least one compound was matched to its structure with a doubt left."}
{"smiles": "CC(=O)Nc1cccc(-n2c(=O)n(C3CC3)c(=O)c3c(Nc4ccc(I)cc4F)n(C)c(=O)c(C)c32)c1", "note": "[trametinib]", "values": [{"measurement": "time to occurrence of resistance", "value": "6 to 7", "unit": "months"}]}
